# Measurements from PubChem BioAssay AID2685 (National Center for Advancing Translational Sciences (NCATS), 2010).
# Some of the results follow. These are further read-outs of the screen, such as a control signal, another cell line or another target. No call is given for them. Compounds called inactive in the main read-out are mostly missing here. Words in brackets tell the shape of the fitted curve; partial curves, single points and poor fits give uncertain potencies.
# Assay: qHTS Assay for Lipid Storage Modulators in Drosophila S3 Cells;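 for cell number change: cells counted by Cell Tracker Red CMTPX staining in the red channel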
# Conditions: BODIPY lipid droplet fluorescence, 18-24 h; for cell number change: measured here: cell count max response, cells fed with added oleic acid
# How it was run: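 Drosophila S3 cells loaded with oleic acid (400 uM, as added) and compounds at several concentrations; lipid droplets imaged by 488-nm laser-scanning cytometry, 500–530 nm intensity and object ratio to cell channel. Percent activity normalized to 20 uM Triacsin C.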
# [1] = measured here: cell number channel AC50, cells fed with added oleic acid
# [2] = measured here: lipid fluorescence (Fed channel) AC50, cells fed with added oleic acid
Structure (SMILES),cell number change [%],AC50 [1],AC50 [2]
CCCOc1ccc(-c2c(C(=O)N/N=C(\C)c3ccco3)nnn2-c2nonc2N)cc1,-95.4,"29.1 µM [falling, single point]",
O=C(Cc1ccccc1)Nc1cccc(-c2nnc(-c3ccco3)o2)c1,-0.862,,"1.3 µM [falling, full curve]"
Cc1cccc(C2N=C(N)Nc3nc4ccccc4n32)c1 (stereo not given),14.1,,"6.51 µM [rising, full curve, poor fit]"
Cc1c(C(=O)Oc2cccc3cccnc23)oc2ccccc12,102,,
O=C(OCc1c(F)cccc1Cl)c1cc([N+](=O)[O-])ccc1N1CCOCC1,-4.42,,
O=C(Nc1cccc(Cl)c1)c1cc(N=Nc2ccc([N+](=O)[O-])cc2Cl)ccc1O,-46.4,"0.206 µM [falling, full curve, poor fit]","20.6 µM [falling, single point]"
COC(=O)c1ccccc1OS(=O)(=O)N(C)C,-11.8,"0.00461 µM [falling, full curve, poor fit]","6.51 µM [falling, single point]"
CCOc1ccc(Nc2oc(-c3cccc(Cl)c3)nc2C#N)cc1,-62.1,"25.9 µM [falling, single point]",
COc1cc(/C=N/NC(=S)N/N=C/c2cc(OC)c(OC)c(OC)c2)cc(OC)c1OC,-83.3,"23.1 µM [falling, partial curve]","6.51 µM [rising, partial curve]"
COc1ccc(C(=O)Nc2nc(-c3ccc(OC)cc3)c(-c3ccc([N+](=O)[O-])cc3)s2)cc1,18.4,,"14.6 µM [rising, single point]"
COc1ccccc1OCCCc1c(C)n[nH]c1C,-6.19,,
OC(COc1ccc2c(c1)OCO2)CN1CCN(c2ccc(F)cc2)CC1 (stereo not given),28.7,,
CC(=O)c1ccc(NC2=C(N3CCOCC3)C(=O)c3ccccc3C2=O)cc1,-7.36,,
CNc1oc(-c2cccs2)nc1C#N,9.48,,"13 µM [rising, partial curve]"
C=CCn1c(-c2ccc(N)cc2)nc2ccccc21,-21.1,,"0.517 µM [rising, full curve]"
COc1cccc(NC(=O)CN(C)C(=O)c2c(C)noc2C)c1,-46.5,"29.1 µM [falling, single point]","10.3 µM [rising, partial curve, poor fit]"
CCOCCCn1c(=O)c(NC(=O)c2ccc(OCC)cc2)c2n(c1=S)CCCCC2,,"0.651 µM [rising, full curve, poor fit]",
COc1ccc(N2CCN(C(=O)c3cn(C)c(=O)c4c3c3ccccc3n4C)CC2)cc1,0.209,,"0.116 µM [rising, full curve, poor fit]"
CCS(=O)(=O)NCc1csc(-c2ccccc2)n1,16.5,"0.731 µM [falling, single point]",
Cc1ccccc1N(CC(=O)NCc1ccc2c(c1)OCO2)C(=O)CCC(=O)Nc1ccccn1,2.52,,"0.461 µM [rising, full curve]"
OCCN(Cc1ccccc1)c1ncnc2sccc12,18.3,,"6.51 µM [rising, single point]"

# Quoted from the listing.
# AC50 [2] with `Cc1ccccc1N(CC(=O)NCc1ccc2c(c1)OCO2)C(=O)CCC(=O)Nc1ccccn1` is entered as 0.461 µM [rising, full curve]
# AC50 [2] with `OCCN(Cc1ccccc1)c1ncnc2sccc12` is entered as 6.51 µM [rising, single point]
# AC50 [2] with `O=C(Cc1ccccc1)Nc1cccc(-c2nnc(-c3ccco3)o2)c1` is entered as 1.3 µM [falling, full curve]
# AC50 [1] with `CCOc1ccc(Nc2oc(-c3cccc(Cl)c3)nc2C#N)cc1` is entered as 25.9 µM [falling, single point]
# cell number change [%] with `COc1ccc(N2CCN(C(=O)c3cn(C)c(=O)c4c3c3ccccc3n4C)CC2)cc1` is entered as 0.209

# The results go on.

Structure (SMILES),cell number change [%],AC50 [1],AC50 [2]
O=C(CN1C(=O)NC2(CCCC2)C1=O)OCc1ccc(Cl)c(Cl)c1,-100,"13 µM [falling, partial curve]",
Cc1ccc(/C=N/Nc2ccnc3cc(Cl)ccc23)c(C)c1,-81.4,"5.8 µM [falling, full curve]","5.17 µM [falling, full curve]"
Cc1cc(N2C(=O)CC(N3CCN(C(c4ccccc4)c4ccccc4)CC3)C2=O)no1 (stereo not given),2.13,,"0.116 µM [rising, single point]"
Cc1c(C(=O)O)sc2nc3n(c(=O)c12)CCC3,-33.2,,"25.9 µM [falling, single point]"
CSc1cccc(NS(=O)(=O)c2ccc(F)cc2)c1,-11.8,,
Cc1cccc(-c2nnc(SCc3ccccc3)o2)c1,2.23,"0.0146 µM [falling, full curve, poor fit]",
COC(=O)c1ccc(N2C(=O)CC(NCc3ccccc3)C2=O)cc1 (stereo not given),0.742,,"7.31 µM [falling, partial curve, poor fit]"
CC(=O)NNc1cc(C)nc(NS(=O)(=O)c2ccc(C)cc2)n1,-3.04,,
COc1ccc(C)cc1NC(=O)Nn1cnnc1,13.1,,"23.1 µM [falling, partial curve]"
CCN(CC)C(=O)CSc1nc2ccccc2c(=O)n1CCC(=O)NCc1ccc(F)cc1,-101,"20.6 µM [falling, single point]","29.1 µM [falling, single point]"
Cc1ccccc1C(=O)N1CCC(C(=O)N2CCN(c3ncccn3)CC2)CC1,14.8,,"2.91 µM [falling, single point]"
CCN(CC(=O)Nc1c(F)cccc1F)C(=O)c1ccc2ccccc2n1,5.12,,
Nc1ccc(Oc2ccc3c(c2)OCO3)cc1,-41.5,"10.3 µM [falling, partial curve, poor fit]","7.31 µM [falling, full curve, poor fit]"
CCOC(=O)N1CCN(S(=O)(=O)c2ccc(C(=O)N(CCCN(C)C)c3nc4ccc(Cl)cc4s3)cc2)CC1,15.1,"0.58 µM [rising, single point]",
CCOC(=O)Nc1nc2ccccc2s1,2.21,"6.51 µM [falling, single point]","14.6 µM [falling, partial curve]"
CC(C)c1ccc(NC(=O)CCCN2C(=O)NC(C)(C)C2=O)cc1,1.44,,"0.651 µM [rising, partial curve]"
COc1ccccc1CCN=C(N)NS(=O)(=O)c1ccccc1F,14.2,,"18.4 µM [rising, single point]"
O=C(O)c1cc(N/N=C/c2ccc(OCc3ccccc3)cc2)ccc1Cl,-21.9,,"0.58 µM [falling, full curve]"
O=C(NCC(=O)N1CCCCCC1)c1ccc(Br)cc1,-0.829,,"6.51 µM [rising, single point]"
Cn1cc(Br)c(C(=O)N2CCc3ccccc32)n1,25.2,,"13 µM [rising, partial curve]"
COc1ccc2c(c1)C(C)=CC(C)(C)N2C(=O)CNCc1ccc2c(c1)OCO2,-38.5,"9.2 µM [falling, partial curve]","29.1 µM [falling, single point]"

Structure (SMILES),cell number change [%],AC50 [1],AC50 [2]
O=C(COC(=O)c1cc(Br)ccc1O)NCC1CCCO1 (stereo not given),-17.7,,
COCCNC(=O)c1ccc2c(c1)S(=O)(=O)c1cc(Cl)ccc1C2=O,,,"5.17 µM [falling, full curve]"
C=CCOC(=O)C1=C(C)NC2(O)c3ccccc3C(=O)C12O (stereo not given),0.517,,"0.58 µM [falling, full curve]"
Cc1cc(O)ccc1-c1cnc2ccccc2n1,-25,,"0.0517 µM [falling, full curve, poor fit]"
COC(=O)c1ccc(N2CCOCC2)c(NC(=O)c2cccs2)c1,30.8,,
CCc1cc(Cn2nc(-c3ccccc3)cc2C(=O)NCCOC)on1,,,"29.1 µM [rising, single point]"
COc1cc(NC(=O)C2CCCCC2)c(OC)cc1NC(=O)CN1CCCCC1,9.4,,
CCCCn1c(N)c(N(CC(C)C)C(=O)c2oc3ccc(Br)cc3c2C)c(=O)[nH]c1=O,22.9,,"29.1 µM [rising, single point]"
O=C(O)c1ccc(NC(CSCc2ccccc2F)C(=O)O)c([N+](=O)[O-])c1 (stereo not given),-10.4,,"0.00517 µM [falling, full curve, poor fit]"
Nc1nonc1C(=O)NCCNC(=O)c1cccc(Cl)c1,4.62,,"4.11 µM [falling, single point]"
Cc1cccc([C@@H](NC(=O)OC(C)(C)C)C(=O)OC(C)(C)C)c1,-0.712,,"0.116 µM [rising, full curve, poor fit]"
Cc1cc(CN2CCOCC2)c(O)c(C2(C)CCCCC2)c1,-53.2,"29.1 µM [falling, single point]","32.6 µM [falling, single point]"
CC(/C=C/c1ccccc1)=N\NC(N)=S,-13.5,,
O=C(COC(=O)c1ccc2c(c1)OCO2)Nc1nc(-c2ccccc2)cs1,-14.6,,"29.1 µM [falling, single point]"
COc1ccccc1N1CCN(c2nc(C)nc3c2oc2ccccc23)CC1,-19.9,,
O=C(CCN1CCc2ccccc2C1)c1ccc2c(c1)OCCO2,-75.8,"18.4 µM [falling, partial curve]","29.1 µM [falling, single point]"
CCNc1nc2c(c(=O)[nH]c(=O)n2C)n1CC(C)C,-71,"2.91 µM [falling, full curve]","3.66 µM [falling, partial curve]"
O=C(NC1CC1)c1sc2cc(F)ccc2c1Cl,-7.43,,"0.731 µM [falling, single point]"
Cc1ccc(OCC(O)CNCc2ccc(F)cc2)cc1 (stereo not given),19.7,,
CCOC(=O)N1CCC(NC(=O)CSCc2nc(-c3cccc(OC)c3)oc2C)CC1,,"2.31 µM [rising, partial curve]",
Cc1ccc(NC(=S)N/N=C/c2c(C)nn(-c3ccccc3)c2N2CCCC2)cc1,12.2,,"0.731 µM [rising, partial curve, poor fit]"
